Assay results taken from PubChem BioAssay AID540275 (National Center for Advancing Translational Sciences (NCATS), 2011).
In all, about 320,000 compounds went through this assay and about 620 (0.19%) were called active. Inconclusive means that the source gave no clear call. Such entries were picked first, then a sample of the others. Cut-off read from the data, not from the text of the source: active = activation above about 80%; inconclusive = between about 30% and that limit; inactive = weaker than that.

Protein sequences, listed by entry. Tags and fused reporters are not part of them.
UniProt Q8NER1, whole entry, looked up: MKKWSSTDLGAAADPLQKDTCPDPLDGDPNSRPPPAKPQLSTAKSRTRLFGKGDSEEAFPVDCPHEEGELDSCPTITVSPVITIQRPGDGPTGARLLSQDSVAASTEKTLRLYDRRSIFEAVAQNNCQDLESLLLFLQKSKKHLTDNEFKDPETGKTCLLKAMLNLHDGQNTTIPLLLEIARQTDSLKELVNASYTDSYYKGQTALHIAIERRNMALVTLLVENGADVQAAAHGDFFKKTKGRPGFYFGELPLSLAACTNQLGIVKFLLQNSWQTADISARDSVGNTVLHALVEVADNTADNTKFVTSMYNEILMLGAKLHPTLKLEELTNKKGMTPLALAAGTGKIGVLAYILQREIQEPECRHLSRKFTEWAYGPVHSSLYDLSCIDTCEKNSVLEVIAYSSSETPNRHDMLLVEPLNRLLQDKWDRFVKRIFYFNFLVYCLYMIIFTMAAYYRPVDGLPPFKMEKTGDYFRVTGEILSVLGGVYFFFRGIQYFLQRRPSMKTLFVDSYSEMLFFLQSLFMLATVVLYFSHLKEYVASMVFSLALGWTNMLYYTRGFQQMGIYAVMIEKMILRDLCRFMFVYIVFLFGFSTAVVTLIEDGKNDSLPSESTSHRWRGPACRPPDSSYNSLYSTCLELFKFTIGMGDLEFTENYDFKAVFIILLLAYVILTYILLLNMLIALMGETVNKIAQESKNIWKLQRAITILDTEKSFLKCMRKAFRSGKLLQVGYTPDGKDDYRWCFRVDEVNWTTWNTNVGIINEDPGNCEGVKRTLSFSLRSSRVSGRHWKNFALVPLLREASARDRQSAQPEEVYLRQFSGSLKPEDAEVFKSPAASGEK

Target: Transient receptor potential cation channel subfamily V member 1 (Homo sapiens) (UniProt Q8NER1)
Assay: HTS Assay for Compounds that Act as Agonists of the Vanilloid Receptor 1; note: 0% is about no effect
Settings: TRPV1-expressing cells, Fluo-8 calcium influx, agonist mode; at 8.33 µM, hits give high values
Method in brief: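 Cells expressing TRPV1 were dye-loaded with Fluo-8 and read kinetically: 10 s baseline, 3 min after compound (agonist portion), then 2 min after EC20 capsaicin (allosteric enhancer portion). Calcium-bound dye fluorescence at 480/520 nm.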

Compound	activation
Cc1ccc(C)c(-c2ccc(=O)n(Cc3cccc(Br)c3)n2)c1	inconclusive: 41%
Cc1ccc(CNC(=O)CSCc2cccc(F)c2)cc1	inconclusive: 35.7%
C/C(Cc1ccccc1)=N\NC(=O)c1ccc(F)cc1	inconclusive: 38.4%
CC1=CC(C)(C)Nc2ccc(OC(=O)CCN3C(=O)c4ccccc4C3=O)cc21	inactive: -1.85%
CCC1=Nc2cc(C(=O)NCC3CCCO3)ccc2Sc2ccc(Br)cc21 (stereo not drawn)	inconclusive: 64%
COc1ccc(NC(=O)C2CC(c3c(F)cccc3Cl)=NO2)cc1 (stereo not drawn)	inactive: 6.19%
CCc1nc2ccccc2c(=O)n1NCCc1ccccc1	inconclusive: 34.2%
NNC(=O)c1ccc(COc2cccc3ccccc23)o1	inconclusive: 45.6%
CCOC(=O)C(Cc1ccccc1)NC(=O)CCc1nnc2ccc(N3CCCC3)nn12 (stereo not drawn)	inactive: -0.18%
COc1ccc(S(=O)(=O)NC(C)C)cc1C(=O)N1CCOCC1	inactive: 0.677%
O=C(NNC(=O)c1ncc(Cl)c(Cl)c1Cl)c1ccc(F)cc1	inconclusive: 30.6%
COC(=O)c1cccc(NC(=O)/C=C/c2ccc3c(c2)OCO3)c1	inconclusive: 55.5%
C=CCSc1nsc(NC(=O)Nc2cccc(C(C)=O)c2)n1	inconclusive: 53.5%
O=[N+]([O-])c1cc([N+](=O)[O-])c(Oc2cc(F)cc(F)c2)cc1NN1CCCCC1	inconclusive: 51.8%
O=C(c1cccs1)N1CCN(Cc2ccncc2)CC1	inactive: 4.42%
O=C(Nc1ccc2c(c1)Cc1ccccc1-2)c1ccco1	inconclusive: 62.4%
CCNC(=O)c1ccc(-n2nc(C(F)(F)F)c3c2CCCC3)cc1	inconclusive: 66.4%
CS(=O)(=O)c1ccc(-c2cn3cc(C(=O)O)ccc3n2)cc1	inactive: -3.67%
CCn1cc(/C=N\NC(=O)c2ccc(Cl)cc2)cn1	inactive: 2.81%
Cc1ccc(NS(=O)(=O)c2cc(C(=O)NCc3ccccn3)ccc2Cl)cc1C	inactive: -0.793%
Cc1nc(NC(=O)COc2ccccc2)sc1C(=O)Nc1ccccc1	inconclusive: 40.4%
COc1ccc(Cl)cc1NC(=S)NCc1ccco1	inactive: -1.44%
O=C(NCc1cccnc1)c1ccc(-c2ccc(Cl)cc2)o1	active: 85.5%
Cc1ccc(SCc2ccc(C(=O)NCc3cccnc3)cc2)cc1	inconclusive: 41.4%

Compound	activation
Cc1cc(C(=O)NCC(=O)OCC(=O)N(C2CCCCC2)C2CCCCC2)ccc1[N+](=O)[O-]	inconclusive: 56.4%
CCOC(=O)C1(Cc2ccc(Cl)cc2)CCN(C(=O)CCc2cnccn2)CC1	inconclusive: 30.9%
Cc1nc(NC(=O)CSc2nnc(C)n2CC2CCCO2)sc1C (stereo not drawn)	inactive: 1.38%
Cc1ccc(C2=NNC3(CCOC(C)(C)C3)S2)cc1 (stereo not drawn)	inactive: -2.94%
Cc1ccc(Nc2nc(Nc3ccc(C)cc3)nc(SC3=NCCS3)n2)cc1	inconclusive: 63.6%
OCCCNc1ncnc2sc(-c3ccccc3)cc12	inconclusive: 73.6%
Cc1ccc(C(=O)C(OC(=O)CNC(=O)c2ccc(Cl)cc2)c2ccccc2)cc1 (stereo not drawn)	inconclusive: 31.2%
NS(=O)(=O)c1ccc(CNC(=O)c2cc(-c3cccnc3)nc3ccccc23)cc1	inactive: 1.34%
O=C(CCc1ccccc1)Nc1ccc(N2CCCCC2)cc1	inconclusive: 31.6%
CCc1cc(=O)oc2cc(OCC(=O)NCCCN3CCCC3=O)ccc12	inactive: 0.236%
CN(C)S(=O)(=O)c1cccc(NC(=O)c2ccc(N3CCOCC3)c([N+](=O)[O-])c2)c1	inconclusive: 72.4%
CCc1ccc(Nc2ncnc3nc[nH]c23)cc1	inconclusive: 70.6%
N#C/C(=C\c1cccnc1)c1ccccn1	inactive: -0.983%
O=C1NC(=S)N/C1=C/c1cccc2ccccc12	inactive: 2.18%
O=C1NCCN1c1ncc([N+](=O)[O-])s1	inactive: -3.46%
N#Cc1c(-c2ccccc2)cc2nc3ccccc3n2c1N	inconclusive: 60%
CCOCC(=O)Nc1ccc(C)c(Cl)c1	inactive: 0.606%
Cc1cc(C(=O)Nc2nc3c(s2)CCCC3)no1	inconclusive: 47.5%
CCOC(=O)c1sc2ncn(CC(=O)NCC3CCCO3)c(=O)c2c1C (stereo not drawn)	inactive: 2.23%
O=C1C=C(c2ccc(OC(F)(F)F)cc2)C[C@@H](c2ccc(F)cc2)C1	inconclusive: 74.3%
COc1cc(CN(C)CCc2ccccc2)ccc1OCc1ccccc1	inactive: 5.86%
COc1ccc(-c2nc(C#N)c(NCCc3ccccc3)o2)cc1OC	inactive: -5.49%
CCOC(=O)/C(C#N)=C1/C=CN(c2ccccc2)C=N1	inactive: 5.46%
Nc1nc(SCC(=O)Nc2ccc(Oc3ccccc3)cc2)n[nH]1	inconclusive: 36.1%

Ordered by SMILES length (high to low): 7 of the compounds above
Compound	activation
CN(C)S(=O)(=O)c1cccc(NC(=O)c2ccc(N3CCOCC3)c([N+](=O)[O-])c2)c1	inconclusive: 72.4%
Cc1cc(C(=O)NCC(=O)OCC(=O)N(C2CCCCC2)C2CCCCC2)ccc1[N+](=O)[O-]	inconclusive: 56.4%
NS(=O)(=O)c1ccc(CNC(=O)c2cc(-c3cccnc3)nc3ccccc23)cc1	inactive: 1.34%
CCOC(=O)C1(Cc2ccc(Cl)cc2)CCN(C(=O)CCc2cnccn2)CC1	inconclusive: 30.9%
Nc1nc(SCC(=O)Nc2ccc(Oc3ccccc3)cc2)n[nH]1	inconclusive: 36.1%
CCOC(=O)/C(C#N)=C1/C=CN(c2ccccc2)C=N1	inactive: 5.46%
CCOCC(=O)Nc1ccc(C)c(Cl)c1	inactive: 0.606%

More records

Compound	activation
CN=c1nc(-c2ccccc2)n(-c2ccccc2)s1	inactive: 0.809%
CCCCN(C)C(=O)c1nc2ccccn2c1CN1CCN(C/C=C/c2ccccc2)CC1	inactive: 0.0324%
Cc1ccc(OCC(=O)Nc2ccc(O)c(C(=O)O)c2)cc1C	inactive: 0.517%
COc1ccc(C2CC(c3ccccc3)Nc3nc(NC(=O)c4ccco4)nn32)cc1 (stereo not drawn)	inactive: -2.24%
Cc1ccn2c(C(=O)CSc3ccccc3)c(C)nc2c1	inconclusive: 34.3%
O=C(/C=C/c1cn(-c2ccccc2)nc1-c1cccc(Cl)c1)N1CCN(c2ccccn2)CC1	inconclusive: 50.1%
O=C(NCCc1nc2ccccc2[nH]1)/C(=C/c1ccc2c(c1)OCO2)NC(=O)c1ccccc1	inactive: -0.439%
COc1ccc(Nc2ncnc3ccc(C)cc23)cc1	active: 80.7%
O=c1ccc2cc3ccoc3cc2o1	inactive: 3.6%
Cc1ccc(S(=O)(=O)N2CCOCC2)cc1NC(=O)c1cc2c(s1)CCC2	inconclusive: 59%
O=C(NCc1cccc(Cl)c1)c1ccc2c(c1)OCO2	inconclusive: 61.4%
COCCNC(=O)C1CCN(S(=O)(=O)N2CCC3(CC2)OCCO3)CC1	inactive: -1.91%
CC(=O)Nc1ccc(S(=O)(=O)N(C)c2ccc(OCC(=O)OCC(=O)NCc3ccco3)cc2)cc1	inactive: 1.65%
CC(NC(=O)c1cn(C)c2ccc(S(=O)(=O)N3CCCC3)cc2c1=O)c1ccccc1 (stereo not drawn)	inconclusive: 73.9%
O=C(Cn1cnc2ccccc21)OCC(=O)N1CCCc2ccccc21	inactive: 1.69%
O=C(/C=C/c1cccc([N+](=O)[O-])c1)Nc1cccc(NC(=O)c2cccs2)c1	inactive: -3.14%
CCOc1nc(C)ccc1-c1noc(-c2ccccn2)n1	inconclusive: 33.2%
COc1ccc(NC(=O)CSc2nnc(COc3ccccc3)n2Cc2ccco2)cc1OC	inconclusive: 37.2%
O=C(C1CCC1)N(CCc1ccccc1)Cc1nc2ccccc2c(=O)[nH]1	inactive: 4.48%
O=C(CCC1CCCC1)Nc1ccc(C(=O)NCc2cccnc2)cc1	inconclusive: 41.2%
COc1ccccc1CCNC(=O)C1CCN(c2nnc(C)c3c(C)n(-c4ccc(C)cc4)nc23)CC1	inconclusive: 41.1%
O=C(/C(=C/c1cccc(Cl)c1)c1nc2ccccc2[nH]1)c1ccccc1	inconclusive: 30.3%
Cc1ccccc1NC(=S)NCc1ccco1	inactive: -2.1%
O=C(Nc1cccc(Br)c1)c1ccc2snnc2c1	inconclusive: 45.3%

Compound	activation
COc1ccc(CN2CCN(Cc3ccc(CO)o3)CC2CCO)cc1C (stereo not drawn)	inactive: -0.5%
O=S(=O)(c1cccc(Br)c1)N1CCN(C(=S)NCC2CCCO2)CC1 (stereo not drawn)	inconclusive: 34.2%
Fc1ccc(CNC(=S)NCc2ccccc2)cc1	active: 84.2%
COc1ccccc1OCCNC(=O)CN(c1cccc(C)c1)S(=O)(=O)c1ccccc1	inconclusive: 37%
CCn1nc(NC(=O)c2ccccn2)c2cc3cc(C)ccc3nc21	inconclusive: 33%
O=C(CCCc1c[nH]c2ccccc12)Nc1ccc2ccccc2c1	inconclusive: 57.1%
Cc1nc(N)sc1C(=O)N/N=C/c1c[nH]c2ccccc12	inactive: -7.16%
Cc1ccc(CNC(=O)COC(=O)C2CCN(S(=O)(=O)c3cccs3)CC2)cc1	inactive: -1.9%
Cc1ccc(C)c(OCc2nc3ccccc3[nH]2)c1	inconclusive: 56.4%
O=C(Nc1ncccc1O)c1ccc(S(=O)(=O)N2CCCCCC2)cc1	inconclusive: 57.1%
CC1(CCC(=O)N2CCCC(Nc3ccc(F)cc3)C2)CC1 (stereo not drawn)	inconclusive: 73.1%
CCOc1cc(C2NN=C(c3ccccc3)S2)ccc1OCc1ccccc1Cl (stereo not drawn)	inactive: 8.38%
CCN(CC)S(=O)(=O)c1ccc2c(c1)nc(SCC(=O)N1CCOCC1)n2-c1ccccc1OC	inconclusive: 36.1%
CN(C1CC(C)(C)N(O)C(C)(C)C1)S(=O)(=O)CC12CCC(CC1=O)C2(C)C (stereo not drawn)	inconclusive: 35%
O=C(Nc1ccc2snnc2c1)N1CCN(c2ccccc2)CC1	inconclusive: 65.2%
COc1ccc(NC2CCCN(C(=O)CCc3ccccc3F)C2)cc1 (stereo not drawn)	active: 81.5%
CCN(CC)c1ccc(/C=N/NC(=S)NCc2ccco2)cc1	inactive: 1.16%
Cc1ccc(NC(=O)c2nc[nH]c2C(=O)Nc2ccc(C)cc2)cc1	inactive: 0.312%
C=CCN(c1ccccc1)S(=O)(=O)c1cccc(C(=O)NCc2ccncc2)c1	inconclusive: 61.3%
CC(=O)c1ccc(N2CCN(C(=O)Nc3ccc(C(C)C)cc3)CC2)cc1	active: 100%
COc1ccc2c(c1O)-c1ccccc1CCN(C)C2	inactive: -0.173%
